Source: PubChem BioAssay AID330 (DTP/NCI, 2004)
The list does not hold the whole screen: it gathers tests that were run many times, whatever their T/C, doses with no T/C, and many T/C values between a quarter and a half above the control. Further doses and runs are listed elsewhere. T/C is the treated group as % of the vehicle group. Some entries give survivors of the animals treated and no T/C: the source holds a T/C of zero for them, seemingly a mark for toxic or unscored doses. Some doses without a T/C left all or most animals alive at the check, yet need not have been tolerated: survival well below the control is almost never listed, so the zero probably covers shortened survival too. Counts of survivors are from the toxicity check (mostly the fifth day) where no day follows; animals may have died later. Schedules are NCI's codes, read here as Q, the interval in days (D) or hours (H), X, the number of doses. Where survival is the endpoint, the PubChem record calls one and a half times the control and up active, and a quarter to a half above the control has no call in these data; cut-offs in other NCI protocols can differ. Marks such as (2×) say how often a value occurs here. Some doses were run more than once; the values are given in rising order. Some T/C values carry the count of animals alive at the toxicity check (mostly the fifth day); without a count, all were alive then.

System: P388 leukemia ip, CD2F1 mice, survival T/C
Assay: NCI In Vivo Anticancer Drug Screen. Data for tumor model P388 Leukemia (intraperitoneal) in CD2F1 (CDF1) mice
Settings: T/C endpoint: median survival time, higher T/C = longer survival
[1] = dose: 50.0 mg/kg/injection, schedule: Q01DX009 (ip), vehicle: Klucel (hydroxypropylcellulose) (HPC)
[2] = dose: 400.0 mg/kg/injection, schedule: Q01DX009 (ip), vehicle: saline with Tween-80
[3] = dose: 400.0 mg/kg/injection, schedule: Q04DX003 (ip), vehicle: Klucel (hydroxypropylcellulose) (HPC)
[4] = dose: 100.0 mg/kg/injection, schedule: Q01DX005 (ip), vehicle: Klucel (hydroxypropylcellulose) (HPC)
[5] = dose: 200.0 mg/kg/injection, schedule: Q01DX005 (ip), vehicle: Klucel (hydroxypropylcellulose) (HPC)
[6] = dose: 12.5 mg/kg/injection, schedule: Q01DX005 (ip), vehicle: saline
[7] = dose: 25.0 mg/kg/injection, schedule: Q01DX005 (ip), vehicle: saline
[8] = dose: 50.0 mg/kg/injection, schedule: Q01DX005 (ip), vehicle: saline
[9] = dose: 100.0 mg/kg/injection, schedule: Q01DX005 (ip), vehicle: saline
[10] = dose: 200.0 mg/kg/injection, schedule: Q01DX005 (ip), vehicle: saline
[11] = dose: 400.0 mg/kg/injection, schedule: Q04DX002 (ip), vehicle: Klucel (hydroxypropylcellulose) (HPC)

With `CC1(CO)C(O)CCC2(C)C1CCC1CC3CC12CCC3(O)CO` (stereo unspecified) the T/C (dose: 30.0 mg/kg/injection, schedule: Q01DX005 (ip), vehicle: saline with Tween-80) was 133 % of control, the T/C [1] was 126 and 136 % of control and the T/C (dose: 60.0 mg/kg/injection, schedule: Q01DX005 (ip), vehicle: saline with Tween-80) was 130 % of control [5 of 6 alive]. The T/C (dose: 67.0 mg/kg/injection, schedule: Q01DX009 (ip), vehicle: saline) was 128 % of control, the T/C (dose: 100.0 mg/kg/injection, schedule: Q01DX009 (ip), vehicle: Klucel (hydroxypropylcellulose) (HPC)) was 137 and 141 % of control and the T/C (dose: 100.0 mg/kg/injection, schedule: Q01DX009 (ip), vehicle: saline with Tween-80) was 125 % of control. The T/C (dose: 100.0 mg/kg/injection, schedule: Q01DX009 (ip), vehicle: saline) was 147 % of control, the survivor count (dose: 100.0 mg/kg/injection, schedule: Q03HX024 (ip), vehicle: Klucel (hydroxypropylcellulose) (HPC)) was 3 of 8 and the T/C (dose: 120.0 mg/kg/injection, schedule: Q01DX005 (ip), vehicle: saline with Tween-80) was 136 % of control. For the same compound, the T/C (dose: 150.0 mg/kg/injection, schedule: Q01DX009 (ip), vehicle: saline) was 145 % of control, the T/C (dose: 200.0 mg/kg/injection, schedule: Q01DX009 (ip), vehicle: saline with Tween-80) was 132 % of control and the T/C [2] was 141 % of control. The survivor count [2] was 6 of 6 and the T/C [3] was 132 % of control.

With `CC(=O)Nc1ccc(Cl)cc1C(Cl)c1ccccc1` (stereo unspecified) the survivor count [4] was 3 of 6 and the survivor count [5] was 0 of 6.

In the case of `C=C(C)[C@@]12OC3(/C=C/C=C/CCCCC)O[C@@H]1[C@@H]1[C@@H]4O[C@]4(CO)[C@@H](O)[C@]4(O)C(=O)C(C)=C[C@H]4[C@@]1(O3)[C@H](C)[C@H]2OC(=O)c1ccccc1`, the T/C (dose: 0.2 mg/kg/injection, schedule: Q01DX009 (ip), vehicle: saline + alcohol) was 127 % of control, the T/C (dose: 0.4 mg/kg/injection, schedule: Q01DX009 (ip), vehicle: saline + alcohol) was 132 % of control and the T/C (dose: 0.8 mg/kg/injection, schedule: Q01DX009 (ip), vehicle: saline + alcohol) was 137 % of control. The T/C (dose: 6.2 micrograms/kg/injection, schedule: Q01DX009 (ip), vehicle: saline + alcohol) was 132 % of control, the T/C (dose: 12.5 micrograms/kg/injection, schedule: Q01DX009 (ip), vehicle: saline + alcohol) was 129 % of control and the T/C (dose: 25.0 micrograms/kg/injection, schedule: Q01DX009 (ip), vehicle: saline + alcohol) was 145 % of control. For the same compound, the survivor count (dose: 50.0 micrograms/kg/injection, schedule: Q01DX009 (ip), vehicle: saline + alcohol) was 6 of 6, the survivor count (dose: 100.0 micrograms/kg/injection, schedule: Q01DX009 (ip), vehicle: saline + alcohol) was 5 of 6 and the survivor count (dose: 200.0 micrograms/kg/injection, schedule: Q01DX009 (ip), vehicle: saline + alcohol) was 0 of 6.

`COc1ccc(/C=C/C(=O)C(CN(C)C)CN(C)C)cc1` was tested, and the survivor count (dose: 6.25 mg/kg/injection, schedule: Q01DX005 (ip), vehicle: saline) was 5 of 6, the survivor count [6] was 5 of 6 and the survivor count [7] was 0 of 6. The survivor count [8] was 0 of 6, the survivor count [9] was 0 of 6 and the survivor count [10] was 0 of 6.

In the case of `O=Cc1ccco1`, the survivor count [2] was 3 of 6.

In the case of `Cc1ccnc(NC2=CC(=O)C(=O)c3ccccc32)c1`, the T/C (dose: 75.0 mg/kg/injection, schedule: Q01DX009 (ip), vehicle: saline sonified) was 127 % of control and the T/C (dose: 150.0 mg/kg/injection, schedule: Q01DX009 (ip), vehicle: saline sonified) was 136 % of control.

For `Cc1ccc(S(=O)(=O)N/N=C\c2cccnc2)cc1`, the T/C (dose: 400.0 mg/kg/injection, schedule: Q01DX009 (ip), vehicle: other) was 131 % of control.

In the case of `CN1C2CCCC1CC1(C2)NC(=O)NC1=O` (stereo unspecified), the survivor count (dose: 200.0 mg/kg/injection, schedule: Q01DX009 (ip), vehicle: water) was 0 of 6.

In the case of `COc1cc(C)c(C2NC(=O)c3ccccc3N2)cc1C` (stereo unspecified), the T/C (dose: 400.0 mg/kg/injection, schedule: Q01DX005 (ip), vehicle: Klucel (hydroxypropylcellulose) (HPC)) was 127 and 131 % of control, the T/C (dose: 480.0 mg/kg/injection, schedule: Q01DX005 (ip), vehicle: Klucel (hydroxypropylcellulose) (HPC)) was 125 % of control and the T/C (dose: 800.0 mg/kg/injection, schedule: Q01DX005 (ip), vehicle: Klucel (hydroxypropylcellulose) (HPC)) was 142 % of control (2×).

For `[O-][n+]1nc2ccccc2c2ccccc21`, the survivor count (dose: 200.0 mg/kg/injection, schedule: Q01DX009 (ip), vehicle: Klucel (hydroxypropylcellulose) (HPC)) was 3 of 6 and the survivor count (dose: 400.0 mg/kg/injection, schedule: Q01DX009 (ip), vehicle: Klucel (hydroxypropylcellulose) (HPC)) was 0 of 6.

For `C=C1C(=O)OC2C3CCC2C1C3` (stereo unspecified), the survivor count (dose: 100.0 mg/kg/injection, schedule: Q04DX003 (ip), vehicle: saline with Tween-80) was 0 of 6, the survivor count (dose: 200.0 mg/kg/injection, schedule: Q04DX003 (ip), vehicle: saline with Tween-80) was 0 of 6 and the survivor count (dose: 400.0 mg/kg/injection, schedule: Q04DX003 (ip), vehicle: saline with Tween-80) was 0 of 6.

`C=C(C)[C@H]1CN[C@H](C(=O)O)[C@H]1CC(=O)O` was tested, and the survivor count (dose: 60.0 mg/kg/injection, schedule: Q01DX005 (ip), vehicle: saline) was 2 of 5.

`CC(C)(Oc1ccc(-c2cccc3ccccc23)cc1)C(=O)O` was tested, and the survivor count [1] was 6 of 6.

In the case of `CCOC(=O)c1ccc(NC(=O)Nc2cccc(NC(C)=O)c2)cc1`, the survivor count (dose: 60.0 mg/kg/injection, schedule: Q01DX005 (ip), vehicle: Klucel (hydroxypropylcellulose) (HPC)) was 6 of 6, the survivor count (dose: 120.0 mg/kg/injection, schedule: Q01DX005 (ip), vehicle: Klucel (hydroxypropylcellulose) (HPC)) was 6 of 6 and the survivor count (dose: 240.0 mg/kg/injection, schedule: Q01DX005 (ip), vehicle: Klucel (hydroxypropylcellulose) (HPC)) was 6 of 6.

`CC(CC(=O)c1ccccc1)=NCCN=C(C)CC(=O)c1ccccc1.c1cc[c]([Sn][c]2ccccc2)cc1` was tested, and the T/C (dose: 100.0 mg/kg/injection, schedule: Q01DX001 (ip), vehicle: Klucel (hydroxypropylcellulose) (HPC)) was 143 % of control.

For `COCCC(=O)NC1CCCC[CH]1[Hg][Cl]` (stereo unspecified), the survivor count (dose: 50.0 mg/kg/injection, schedule: Q04DX003 (ip), vehicle: Klucel (hydroxypropylcellulose) (HPC)) was 2 of 6, the survivor count (dose: 100.0 mg/kg/injection, schedule: Q04DX003 (ip), vehicle: Klucel (hydroxypropylcellulose) (HPC)) was 0 of 6 and the survivor count (dose: 200.0 mg/kg/injection, schedule: Q04DX003 (ip), vehicle: Klucel (hydroxypropylcellulose) (HPC)) was 0 of 6. The survivor count [3] was 0 of 6.

`COc1ccc2c3c1O[C@H](c1ccc(O)cc1)[C@H]3[N+](C)(C)CC2` was tested, and the survivor count [4] was 0 of 6.

In the case of `CCCCCCCCC(=O)c1c(OC)oc(/C=N/NC(N)=S)cc1=O`, the survivor count [1] was 6 of 6.

In the case of `CN1CCC(/C=C/c2cccc3ccccc23)CN1` (stereo unspecified) (tested in a mixture with another compound), the survivor count (dose: 200.0 mg/kg/injection, schedule: Q01DX009 (ip), vehicle: saline) was 5 of 6.

For `C/C=C(\C)C(=O)OC1CCC2(C)C3CCC4C5(O)CC(O)C6(O)C(CN7CC(C)CCC7C6(C)O)C5(O)CC42OC13O` (stereo unspecified), the survivor count (dose: 12.5 mg/kg/injection, schedule: Q01DX005 (ip), vehicle: Klucel (hydroxypropylcellulose) (HPC)) was 0 of 5, the survivor count [6] was 0 of 5 and the survivor count (dose: 25.0 mg/kg/injection, schedule: Q01DX005 (ip), vehicle: Klucel (hydroxypropylcellulose) (HPC)) was 0 of 5. For the same compound, the survivor count [7] was 0 of 5, the survivor count (dose: 50.0 mg/kg/injection, schedule: Q01DX005 (ip), vehicle: Klucel (hydroxypropylcellulose) (HPC)) was 0 of 5 and the survivor count [8] was 0 of 5. For the same compound, the survivor count [4] was 0 of 5, the survivor count [9] was 0 of 5 and the survivor count [5] was 0 of 5. The survivor count [10] was 0 of 5.

`COc1cccc2c1SCC/C2=N\OCC(O)CNC1CCCCC1` (stereo unspecified) was tested, and the survivor count [11] was 0 of 6.

For `CC1(C)CC(=O)N(CN2CCCCC2)C(=O)C1`, the survivor count [11] was 3 of 6.

With `Cc1cc(N/N=C/c2ccc([N+](=O)[O-])cc2)c2cc3c(cc2n1)OCO3` the survivor count [4] was 1 of 6 and the survivor count [5] was 0 of 6.
